These are yes or no findings as the source states them, for the method shown. Binding can be weak; no strength is given. For part of these data: Binding seen in cells or lysates may run through a third protein. For part of these data: Tags and fused reporters may be left off the sequences shown.
B1: cEYFP-PPI1Δ1-358aa (domain or fragment, UniProt O23144 359-612)
chain: EDYEKRILQSLDSRQLSRDGRMRNPDEKPLIAPEAAPSKATPSETEVVPKAKAKPQPKEEPVSAPKPDATVAQNTEKAKDAVKVKNVADDDDDEVYGLGKPQKEEKPVDAATAKEMRKQEEIAKAKQAMERKKKLAEKAAAKAAIRAQKEAEKKEKKEQEKKAKKKTGGNTETETEEVPEASEEEIEAPVQEEKPQKEKVFKEKPIRNRTRGRGPETIPRAILKRKKSTNYWVYAAPAALVVLLLLVLGYYYVL
B2: PPI1 (full length, BiFC fusion) (protein, UniProt O23144 1-612)
chain: MGVEVVNSGGFEVAPAPFEGKPEKNGKLDQGKGDDAPINFGSVGELPKNAEENNNKVVNSDAPKNAAEEWPVAKQIHSFYLVKYRSYADPKIKAKLDLADKELEKLNKARTGVLDKLRAKRAERSELFDLLDPLKSERKGFNTMFDEKRKEMEPLQQALGKLRSNDGGSARGPAICSSEEELNSMIYSYQYRIQHESIPLTEEKQILKEIRLLEGTRDKVIANAAMRAKIKESMGQKDDIQGQVKLMGAGLDGVKKERQAISARINELSEKLKATKDEITVLENELKTVSEKRDKAYSNIHDLRRQRDETNSEYYQNRTVLNKARDLAAQKNISELEALANAEVEKFISLWCSKKNFREDYEKRILQSLDSRQLSRDGRMRNPDEKPLIAPEAAPSKATPSETEVVPKAKAKPQPKEEPVSAPKPDATVAQNTEKAKDAVKVKNVADDDDDEVYGLGKPQKEEKPVDAATAKEMRKQEEIAKAKQAMERKKKLAEKAAAKAAIRAQKEAEKKEKKEQEKKAKKKTGGNTETETEEVPEASEEEIEAPVQEEKPQKEKVFKEKPIRNRTRGRGPETIPRAILKRKKSTNYWVYAAPAALVVLLLLVLGYYYVL
B3: PPI2 (BiFC fusion) (protein, UniProt B3H4K7 1-589)
chain: MGAQIILSEGFEVVPPPEMNDLVLFGSNQSVSSCDVSTVTTEDGTVFSGDSSPGGATEEDFPEEKPFSFYFVKQPAYDDPEIKAKIDEAGHEINRYNKDRIVVSNAQESEKAEILSLFGQMKSLVSKSEGYRVVIEEKKMEFDALHESLRNLRCSTSDQLCFSKEELDHLIYIAHYQIEHGSIGFEEEDWVLKETEKADGIVLSEDSLAEKEASINRVKSMAVELNEVKKELDAITWKINHLSDKVGKSQNNLRVLDVKKAHILEERDRSYERIKMLRIQRDKGKAAFYQSLPVMRKARELAASGNVRDLEVFASSEADRFMTQWNDDKAFRDDYVKRISPSLCERQLNQDGRIKDPEVQVVWEKKVPVKGGEKVHETNREDSSSNSSQYGSVITDKRKKETRKKAMDFNRSSAEESDVTDLEFSVYEKPKKEEEEVDEETLKEREREEQLEKARLAMERKRKLQEKAAAKAAIRAQKEAEKKLKECEKKAKKKAAANSSSPSESDHSQEVTKDLEKVRTLAVSGKEKHQKERSLFPKQRSFRYKHRGRGTEALPKAILNRRKAHKYWVWGLSSAALAVALFLVVLLLR
B4: NubG-PPI1Δ1-358aa (domain or fragment, UniProt O23144 359-612)
chain: B1 chain
B5: NubG-PPI1 (full-length proton pump interactor 1) (protein, UniProt O23144 1-612)
chain: B2 chain
B6: NubG-PPI2 (protein, UniProt B3H4K7 1-589)
chain: B3 chain

Target: nEYFP-XopLXcc (Xanthomonas campestris pv. campestris 8004)
Assay: split reporter; BiFC with nEYFP and cEYFP fusions in transfected Arabidopsis protoplasts; YFP fluorescence detected after 8 h by confocal microscopy

Binder | binding
B1 | binds
B2 | binds
B3 | no binding

Target: Cub-XopLXcc (Xanthomonas campestris pv. campestris 8004)
Assay: two-hybrid; split-ubiquitin yeast two-hybrid, point-to-point co-transformation of yeast NMY51; Cub fusions (pDHB1) as bait, NubG fusions (pPR3N) as prey; growth on selective medium (-TLHA) and lacZ (X-gal) activity, 30 °C

Binder | binding
B4 | binds
B5 | binds
B6 | no binding

From paper PMC11394911
